Results are given in words; binding and its absence hold for the method and conditions named. In cells and extracts the contact can be indirect. Some results given as binding are weak or reduced against the parent protein; the word gives no strength.
Target: Homeobox A5 (HOXA5) (human (endogenous in PCa cells)) (UniProt P20719)
Assay: co-IP; endogenous co-immunoprecipitation in PCa cells; lysates (western blotting and IP lysis buffer) incubated with antibody against HOXA5 or TRAF7 or negative control IgG at 4 °C overnight; Pierce Co-Immunoprecipitation Kit; SDS-PAGE and western blotting; both directions

Amino acid sequences for entries named in this document (tags omitted).
UniProt P20719: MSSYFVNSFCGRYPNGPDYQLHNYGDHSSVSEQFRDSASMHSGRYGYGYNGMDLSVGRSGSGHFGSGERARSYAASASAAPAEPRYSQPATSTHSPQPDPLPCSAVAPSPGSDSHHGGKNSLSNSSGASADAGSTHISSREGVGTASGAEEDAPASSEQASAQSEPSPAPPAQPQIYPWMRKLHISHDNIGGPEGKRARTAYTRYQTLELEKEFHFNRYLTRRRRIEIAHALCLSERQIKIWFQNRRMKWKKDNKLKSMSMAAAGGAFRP

binding: binds
B1: tumor necrosis factor receptor-associated factor 7 (TRAF7) (protein, UniProt Q6Q0C0 1-670)
chain: MSSGKSARYNRFSGGPSNLPTPDVTTGTRMETTFGPAFSAVTTITKADGTSTYKQHCRTPSSSSTLAYSPRDEEDSMPPISTPRRSDSAISVRSLHSESSMSLRSTFSLPEEEEEPEPLVFAEQPSVKLCCQLCCSVFKDPVITTCGHTFCRRCALKSEKCPVDNVKLTVVVNNIAVAEQIGELFIHCRHGCRVAGSGKPPIFEVDPRGCPFTIKLSARKDHEGSCDYRPVRCPNNPSCPPLLRMNLEAHLKECEHIKCPHSKYGCTFIGNQDTYETHLETCRFEGLKEFLQQTDDRFHEMHVALAQKDQEIAFLRSMLGKLSEKIDQLEKSLELKFDVLDENQSKLSEDLMEFRRDASMLNDELSHINARLNMGILGSYDPQQIFKCKGTFVGHQGPVWCLCVYSMGDLLFSGSSDKTIKVWDTCTTYKCQKTLEGHDGIVLALCIQGCKLYSGSADCTIIVWDIQNLQKVNTIRAHDNPVCTLVSSHNVLFSGSLKAIKVWDIVGTELKLKKELTGLNHWVRALVAAQSYLYSGSYQTIKIWDIRTLDCIHVLQTSGGSVYSIAVTNHHIVCGTYENLIHVWDIESKEQVRTLTGHVGTVYALAVISTPDQTKVFSASYDRSLRVWSMDNMICTQTLLRHQGSVTALAVSRGRLFSGAVDSTVKVWTC

Reference: PMC10579307
